Paper PMC4823717
These are yes or no findings as the source states them, for the method shown. Binding seen in cells or lysates may run through a third protein. Some entries that bind do so weakly or less than the wild type. Sequences can lack the tags named with a protein.

Biological target: T1, His10-σ32 T52C (E. coli) (UniProt P0AGB3)
T1 sequence: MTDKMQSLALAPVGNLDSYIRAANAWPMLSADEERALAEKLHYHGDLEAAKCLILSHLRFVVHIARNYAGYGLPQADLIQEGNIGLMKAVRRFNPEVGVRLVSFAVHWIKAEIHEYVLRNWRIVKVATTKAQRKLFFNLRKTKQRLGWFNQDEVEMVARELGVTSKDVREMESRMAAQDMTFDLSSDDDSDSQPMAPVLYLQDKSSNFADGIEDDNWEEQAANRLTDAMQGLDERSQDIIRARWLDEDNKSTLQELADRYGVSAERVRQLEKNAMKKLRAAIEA
Assay: cross-linking; in vivo disulfide cross-linking: cells with His10-σ32 (Cys) and single-Cys Ffh treated with 50 μM Cu2+(phenanthroline)3 at 37 °C for 5 min, quenched, TALON isolation, SDS-PAGE with or without 2-mercaptoethanol, anti-Ffh immunoblotting

binding: binds
B1: Ffh M376C (single-Cys derivative of Cys-less Ffh C406S) (protein, UniProt P0AGD7 1-453)
chain: MFDNLTDRLSRTLRNISGRGRLTEDNVKDTLREVRMALLEADVALPVVREFINRVKEKAVGHEVNKSLTPGQEFVKIVRNELVAAMGEENQTLNLAAQPPAVVLMAGLQGAGKTTSVGKLGKFLREKHKKKVLVVSADVYRPAAIKQLETLAEQVGVDFFPSDVGQKPVDIVNAALKEAKLKFYDVLLVDTAGRLHVDEAMMDEIKQVHASINPVETLFVVDAMTGQDAANTAKAFNEALPLTGVVLTKVDGDARGGAALSIRHITGKPIKFLGVGEKTEALEPFHPDRIASRILGMGDVLSLIEDIESKVDRAQAEKLASKLKKGDGFDLNDFLEQLRQMKNMGGMASLMGKLPGMGQIPDNVKSQMDDKVLVRCEAIINSMTMKERAKPEIIKGSRKRRIAAGSGMQVQDVNRLLKQFDDMQRMMKKMKKGGMAKMMRSMKGMMPPGFPGR
